Holding throughout (experiment): PRISMA enrichment of interactor (LFQ) in peptide spot vs all other peptide spots (log2 fold change); higher = stronger / more specific binding of the interactor to the peptide
For assay [1], the target named is ACAT1, P24752. The protocol:
(§1)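 PRISMA: 15-aa overlapping tiles (offset 8 aa) of 60 microproteins, plus SOS1/GLUT1 control peptides, were spot-synthesized on cellulose membranes in triplicate. Membranes were incubated with benzonase-treated HEK293T lysate, and bound proteins were identified by LC-MS/MS with LFQ. Enrichment is the log2 fold change of each protein in one spot versus all other spots. Only interactors passing the significance cutoff are listed.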

Protein sequences, listed by entry. Tags and fused reporters are not part of them.
KHDRBS1, Q07666, UniProt Q07666, whole entry: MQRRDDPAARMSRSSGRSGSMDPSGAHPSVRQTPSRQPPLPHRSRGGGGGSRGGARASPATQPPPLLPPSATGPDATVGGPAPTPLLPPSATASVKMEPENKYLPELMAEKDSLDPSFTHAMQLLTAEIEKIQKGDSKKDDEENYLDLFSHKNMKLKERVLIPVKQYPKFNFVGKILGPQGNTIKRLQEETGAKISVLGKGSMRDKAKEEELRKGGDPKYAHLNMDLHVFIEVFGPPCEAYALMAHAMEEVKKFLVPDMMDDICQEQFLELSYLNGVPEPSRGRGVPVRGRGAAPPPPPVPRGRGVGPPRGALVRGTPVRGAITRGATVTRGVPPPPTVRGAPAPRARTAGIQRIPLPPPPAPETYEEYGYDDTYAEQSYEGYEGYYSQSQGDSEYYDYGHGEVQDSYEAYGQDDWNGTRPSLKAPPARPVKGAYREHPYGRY
POLR1C, O15160, UniProt O15160, whole entry: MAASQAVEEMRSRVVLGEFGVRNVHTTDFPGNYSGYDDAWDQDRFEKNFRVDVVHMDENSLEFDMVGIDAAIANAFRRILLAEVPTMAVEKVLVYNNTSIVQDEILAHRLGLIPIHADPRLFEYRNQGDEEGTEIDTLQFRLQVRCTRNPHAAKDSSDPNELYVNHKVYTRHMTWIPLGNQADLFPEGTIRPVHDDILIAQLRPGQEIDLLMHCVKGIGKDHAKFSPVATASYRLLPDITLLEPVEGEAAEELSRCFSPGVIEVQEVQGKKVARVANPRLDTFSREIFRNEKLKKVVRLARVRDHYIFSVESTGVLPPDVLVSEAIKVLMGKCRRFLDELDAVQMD
ACTN4, O43707, UniProt O43707, whole entry: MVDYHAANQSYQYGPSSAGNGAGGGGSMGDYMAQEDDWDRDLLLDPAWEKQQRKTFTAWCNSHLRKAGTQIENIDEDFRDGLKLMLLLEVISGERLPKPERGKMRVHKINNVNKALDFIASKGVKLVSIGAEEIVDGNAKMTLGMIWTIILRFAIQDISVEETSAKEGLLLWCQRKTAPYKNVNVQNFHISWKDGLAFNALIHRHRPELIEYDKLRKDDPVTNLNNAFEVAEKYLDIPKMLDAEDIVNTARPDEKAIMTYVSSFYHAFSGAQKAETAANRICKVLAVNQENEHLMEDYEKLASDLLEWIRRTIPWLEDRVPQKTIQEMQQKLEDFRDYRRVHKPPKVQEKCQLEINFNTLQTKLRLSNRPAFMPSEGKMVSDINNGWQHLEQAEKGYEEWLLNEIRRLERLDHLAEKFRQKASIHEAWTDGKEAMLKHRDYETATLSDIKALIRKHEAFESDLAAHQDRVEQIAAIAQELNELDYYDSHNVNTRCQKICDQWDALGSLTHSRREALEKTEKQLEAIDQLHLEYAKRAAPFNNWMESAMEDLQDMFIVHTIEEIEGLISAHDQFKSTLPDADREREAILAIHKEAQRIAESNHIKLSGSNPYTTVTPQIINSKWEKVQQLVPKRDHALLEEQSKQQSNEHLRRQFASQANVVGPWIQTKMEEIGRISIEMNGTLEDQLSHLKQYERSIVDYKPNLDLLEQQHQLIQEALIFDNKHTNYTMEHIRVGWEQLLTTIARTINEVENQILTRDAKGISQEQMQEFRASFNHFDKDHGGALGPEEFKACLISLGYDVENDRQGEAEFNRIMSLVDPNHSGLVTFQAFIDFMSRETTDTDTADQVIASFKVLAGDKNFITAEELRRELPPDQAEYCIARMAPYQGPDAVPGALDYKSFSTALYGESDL
CDC23, Q9UJX2, UniProt Q9UJX2, whole entry: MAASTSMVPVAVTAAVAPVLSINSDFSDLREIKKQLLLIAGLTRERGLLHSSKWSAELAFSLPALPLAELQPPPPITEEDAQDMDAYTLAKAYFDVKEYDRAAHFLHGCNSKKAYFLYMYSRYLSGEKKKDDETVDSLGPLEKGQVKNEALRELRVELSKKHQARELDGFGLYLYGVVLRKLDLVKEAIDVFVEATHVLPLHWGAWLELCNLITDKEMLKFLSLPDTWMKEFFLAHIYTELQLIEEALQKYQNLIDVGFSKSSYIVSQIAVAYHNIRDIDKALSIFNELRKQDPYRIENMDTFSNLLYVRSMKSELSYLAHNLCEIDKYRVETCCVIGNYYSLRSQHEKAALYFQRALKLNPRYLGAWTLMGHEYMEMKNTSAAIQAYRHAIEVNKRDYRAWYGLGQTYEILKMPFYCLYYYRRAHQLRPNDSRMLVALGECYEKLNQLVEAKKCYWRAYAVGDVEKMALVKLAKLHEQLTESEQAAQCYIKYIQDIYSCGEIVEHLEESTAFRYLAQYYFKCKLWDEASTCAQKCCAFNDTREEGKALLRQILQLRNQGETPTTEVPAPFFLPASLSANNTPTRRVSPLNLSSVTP
DYNLRB1, Q9NP97, UniProt Q9NP97, whole entry: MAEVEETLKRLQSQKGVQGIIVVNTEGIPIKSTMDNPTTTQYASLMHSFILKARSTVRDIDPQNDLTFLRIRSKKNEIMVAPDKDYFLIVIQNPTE
MCM2, P49736, UniProt P49736, whole entry: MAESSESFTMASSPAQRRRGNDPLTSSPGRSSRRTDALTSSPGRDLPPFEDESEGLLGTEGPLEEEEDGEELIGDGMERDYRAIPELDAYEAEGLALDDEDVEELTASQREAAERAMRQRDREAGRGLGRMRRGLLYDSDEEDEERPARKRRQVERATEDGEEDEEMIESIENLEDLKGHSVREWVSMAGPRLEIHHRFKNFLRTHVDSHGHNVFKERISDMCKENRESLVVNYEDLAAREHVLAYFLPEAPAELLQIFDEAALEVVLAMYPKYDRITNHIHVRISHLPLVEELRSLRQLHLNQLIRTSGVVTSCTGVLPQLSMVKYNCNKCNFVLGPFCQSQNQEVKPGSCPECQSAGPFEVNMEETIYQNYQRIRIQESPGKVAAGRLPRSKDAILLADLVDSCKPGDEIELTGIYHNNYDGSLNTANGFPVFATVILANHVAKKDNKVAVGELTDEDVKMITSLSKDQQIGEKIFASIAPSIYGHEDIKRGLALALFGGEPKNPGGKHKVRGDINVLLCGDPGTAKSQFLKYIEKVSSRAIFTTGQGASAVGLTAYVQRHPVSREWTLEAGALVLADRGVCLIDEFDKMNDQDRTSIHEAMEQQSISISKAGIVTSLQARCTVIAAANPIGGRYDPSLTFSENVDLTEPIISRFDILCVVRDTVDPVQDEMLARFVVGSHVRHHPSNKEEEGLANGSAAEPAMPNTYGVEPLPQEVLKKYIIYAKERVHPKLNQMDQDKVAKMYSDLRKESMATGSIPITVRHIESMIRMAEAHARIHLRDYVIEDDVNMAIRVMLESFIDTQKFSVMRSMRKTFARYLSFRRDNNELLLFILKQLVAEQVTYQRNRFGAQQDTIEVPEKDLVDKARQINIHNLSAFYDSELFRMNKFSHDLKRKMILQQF
MTHFD1, P11586, UniProt P11586, whole entry: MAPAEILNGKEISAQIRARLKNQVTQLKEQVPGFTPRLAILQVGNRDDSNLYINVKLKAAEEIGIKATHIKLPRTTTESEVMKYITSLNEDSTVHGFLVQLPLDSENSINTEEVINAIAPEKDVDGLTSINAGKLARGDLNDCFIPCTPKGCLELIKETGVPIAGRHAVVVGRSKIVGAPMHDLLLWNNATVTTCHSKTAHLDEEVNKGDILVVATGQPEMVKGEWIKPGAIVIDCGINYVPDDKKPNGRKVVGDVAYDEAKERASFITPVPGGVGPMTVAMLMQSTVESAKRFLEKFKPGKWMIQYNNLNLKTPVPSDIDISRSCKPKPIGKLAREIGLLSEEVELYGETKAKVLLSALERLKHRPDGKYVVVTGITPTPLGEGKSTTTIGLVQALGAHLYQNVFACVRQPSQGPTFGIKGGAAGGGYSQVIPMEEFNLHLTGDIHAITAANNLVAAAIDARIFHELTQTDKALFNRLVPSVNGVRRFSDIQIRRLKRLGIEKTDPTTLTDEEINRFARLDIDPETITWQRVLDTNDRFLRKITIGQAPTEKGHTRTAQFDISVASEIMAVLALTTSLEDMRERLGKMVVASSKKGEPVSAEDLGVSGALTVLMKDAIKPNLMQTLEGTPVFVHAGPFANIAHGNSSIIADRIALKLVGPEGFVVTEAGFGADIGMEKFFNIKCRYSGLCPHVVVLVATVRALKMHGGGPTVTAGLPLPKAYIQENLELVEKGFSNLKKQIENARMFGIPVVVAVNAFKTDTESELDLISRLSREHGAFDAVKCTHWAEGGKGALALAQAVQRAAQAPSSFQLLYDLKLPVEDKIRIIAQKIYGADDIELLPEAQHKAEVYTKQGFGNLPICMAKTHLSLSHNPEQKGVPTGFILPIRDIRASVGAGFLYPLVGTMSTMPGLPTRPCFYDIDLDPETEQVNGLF
SERPINA1, P01009, UniProt P01009, whole entry: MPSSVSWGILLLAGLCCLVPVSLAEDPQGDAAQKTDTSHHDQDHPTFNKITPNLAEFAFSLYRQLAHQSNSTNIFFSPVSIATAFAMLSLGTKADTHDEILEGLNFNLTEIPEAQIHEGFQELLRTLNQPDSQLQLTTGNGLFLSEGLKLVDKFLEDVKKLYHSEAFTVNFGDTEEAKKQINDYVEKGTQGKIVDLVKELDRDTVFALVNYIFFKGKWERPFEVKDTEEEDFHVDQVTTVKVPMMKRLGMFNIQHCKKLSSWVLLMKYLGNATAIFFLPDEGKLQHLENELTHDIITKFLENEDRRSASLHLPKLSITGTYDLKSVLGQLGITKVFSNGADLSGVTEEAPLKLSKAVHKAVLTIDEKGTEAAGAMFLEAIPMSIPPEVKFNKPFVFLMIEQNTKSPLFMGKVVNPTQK
EIF3A, Q14152, UniProt Q14152, whole entry: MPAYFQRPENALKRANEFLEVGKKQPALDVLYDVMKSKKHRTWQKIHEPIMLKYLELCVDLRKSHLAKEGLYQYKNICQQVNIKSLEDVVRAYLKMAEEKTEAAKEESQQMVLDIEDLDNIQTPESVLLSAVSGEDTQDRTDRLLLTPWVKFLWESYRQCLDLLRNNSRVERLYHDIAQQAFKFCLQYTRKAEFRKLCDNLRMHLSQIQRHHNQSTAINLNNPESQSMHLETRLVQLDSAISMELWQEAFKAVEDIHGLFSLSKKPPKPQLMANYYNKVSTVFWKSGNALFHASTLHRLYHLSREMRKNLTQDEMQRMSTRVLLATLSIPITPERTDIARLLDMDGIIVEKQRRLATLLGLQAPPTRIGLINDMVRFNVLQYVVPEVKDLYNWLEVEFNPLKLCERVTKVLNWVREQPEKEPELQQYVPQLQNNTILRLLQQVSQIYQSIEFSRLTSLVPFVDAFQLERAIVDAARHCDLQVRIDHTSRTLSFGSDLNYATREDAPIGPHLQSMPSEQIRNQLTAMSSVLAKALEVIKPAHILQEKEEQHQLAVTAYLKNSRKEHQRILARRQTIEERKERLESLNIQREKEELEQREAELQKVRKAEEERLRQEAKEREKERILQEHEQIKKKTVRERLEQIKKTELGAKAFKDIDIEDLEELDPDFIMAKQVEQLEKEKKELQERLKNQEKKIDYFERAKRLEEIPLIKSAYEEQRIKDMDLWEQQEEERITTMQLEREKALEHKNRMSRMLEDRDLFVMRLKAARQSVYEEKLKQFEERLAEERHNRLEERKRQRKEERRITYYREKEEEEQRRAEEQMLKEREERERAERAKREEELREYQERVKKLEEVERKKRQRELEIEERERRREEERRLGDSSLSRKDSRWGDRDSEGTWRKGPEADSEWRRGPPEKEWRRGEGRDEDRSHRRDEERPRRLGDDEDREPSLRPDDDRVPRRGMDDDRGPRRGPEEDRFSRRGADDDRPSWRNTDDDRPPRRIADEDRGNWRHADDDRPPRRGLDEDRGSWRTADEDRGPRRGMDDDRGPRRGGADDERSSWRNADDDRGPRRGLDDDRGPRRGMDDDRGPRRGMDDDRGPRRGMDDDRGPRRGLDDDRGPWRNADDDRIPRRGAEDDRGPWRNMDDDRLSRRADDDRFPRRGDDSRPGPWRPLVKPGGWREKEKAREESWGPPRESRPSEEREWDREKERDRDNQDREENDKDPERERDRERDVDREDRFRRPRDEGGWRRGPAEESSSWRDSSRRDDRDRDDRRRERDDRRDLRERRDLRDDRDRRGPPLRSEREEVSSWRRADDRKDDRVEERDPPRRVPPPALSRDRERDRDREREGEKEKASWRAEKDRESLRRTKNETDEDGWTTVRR
PDLIM7, Q9NR12, UniProt Q9NR12, whole entry: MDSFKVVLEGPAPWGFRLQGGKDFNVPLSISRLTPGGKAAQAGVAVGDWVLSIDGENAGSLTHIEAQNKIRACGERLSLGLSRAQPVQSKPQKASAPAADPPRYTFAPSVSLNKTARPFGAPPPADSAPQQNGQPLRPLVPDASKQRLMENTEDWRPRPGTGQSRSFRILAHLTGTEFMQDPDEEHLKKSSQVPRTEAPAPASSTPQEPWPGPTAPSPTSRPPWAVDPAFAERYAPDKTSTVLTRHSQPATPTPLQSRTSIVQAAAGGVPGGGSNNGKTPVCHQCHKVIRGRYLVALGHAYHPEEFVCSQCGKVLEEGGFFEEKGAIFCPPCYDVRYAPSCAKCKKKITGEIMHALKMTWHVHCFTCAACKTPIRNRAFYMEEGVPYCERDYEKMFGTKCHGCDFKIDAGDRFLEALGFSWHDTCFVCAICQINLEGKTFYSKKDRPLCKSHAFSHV

The target of assay [2] is ASMTL, O95671. The protocol:
as §1

Assay [3] has as its target CCDC58, Q4VC31. The protocol: as §1
Assay [4] deals with CDK2, P24941. The protocol:
as §1

Assay [5] addresses DLD, P09622. The protocol:
as §1

In assay [6] the target is FAM50B, Q9Y247. The protocol: as §1
For assay [7], the target named is GMPS, P49915. The protocol: as §1
Substrate in assay [8]: INIP, Q9NRY2
The protocol: as §1

Assay [9] concerns the target KHDRBS1, Q07666. The protocol: as §1
Assay [10] deals with MRPL48, Q96GC5. The protocol:
as §1

For assay [11], the target named is MRPS5, P82675. The protocol:
as §1

Assay [12] addresses MRTO4, Q9UKD2. The protocol:
as §1

The target of assay [13] is NKAP, Q8N5F7. The protocol: as §1
Assay [14] addresses PAWR, Q96IZ0. The protocol: as §1
The target in assay [15] is PGRMC1, O00264. The protocol:
as §1

The target of assay [16] is POGZ, Q7Z3K3. The protocol: as §1
Assay [17] addresses POLR1C, O15160. The protocol: as §1
In assay [18] the target is VPS36, Q86VN1. The protocol:
as §1

In assay [19] the target is ZNF22, P17026. The protocol: as §1
The target in assay [20] is ACTN4, O43707. The protocol:
as §1

Assay [21] concerns the target ANP32B, Q92688. The protocol:
as §1

Assay [22] addresses CAPZA1, P52907. The protocol: as §1
The target in assay [23] is CDC23, Q9UJX2. The protocol:
as §1

In assay [24] the target is CLPTM1, O96005. The protocol: as §1
Assay [25] deals with COPS7B, Q9H9Q2. The protocol: as §1
The target of assay [26] is DNAAF5, Q86Y56. The protocol:
as §1

The target of assay [27] is DYNLRB1, Q9NP97. The protocol:
as §1

The target in assay [28] is EARS2, Q5JPH6. The protocol: as §1
For assay [29], the target named is EXOC6, Q8TAG9. The protocol:
as §1

Assay [30] deals with FAM3C, Q92520. The protocol:
as §1

Assay [31] deals with FLOT1, O75955. The protocol: as §1
Assay [32] deals with GRSF1, Q12849. The protocol:
as §1

The target in assay [33] is HUWE1, Q7Z6Z7. The protocol:
as §1

Assay [34] addresses ITPA, Q9BY32. The protocol: as §1
For assay [35], the target named is MCM2, P49736. The protocol: as §1
For assay [36], the target named is MCM6, Q14566. The protocol:
as §1

For assay [37], the target named is MTHFD1, P11586. The protocol: as §1
For assay [38], the target named is NAT10, Q9H0A0. The protocol: as §1
Assay [39] deals with NOP2, P46087. The protocol:
as §1

The target in assay [40] is NTMT1, Q9BV86. The protocol: as §1
In assay [41] the target is PRPF38A, Q8NAV1. The protocol:
as §1

Assay [42] addresses PSMB1, P20618. The protocol: as §1
In assay [43] the target is PSMD12, O00232. The protocol:
as §1

Assay [44] has as its target SERPINA1, P01009. The protocol:
as §1

In assay [45] the target is SLC25A11, Q02978. The protocol:
as §1

Assay [46] deals with TCOF1, Q13428. The protocol: as §1
Assay [47] addresses TRIP4, Q15650. The protocol: as §1
Assay [48] addresses WTAP, Q15007. The protocol:
as §1

Assay [49] concerns the target TRMT112, Q9UI30. The protocol:
as §1

For assay [50], the target named is UBIAD1, Q9Y5Z9. The protocol:
as §1

Assay [51] concerns the target YTHDC2, Q9H6S0. The protocol:
as §1

Assay [52] addresses ACLY, P53396. The protocol:
as §1

The target in assay [53] is AIMP2, Q13155. The protocol:
as §1

The target in assay [54] is ALDH1L1, O75891. The protocol:
as §1

Assay [55] deals with DNAJA1, P31689. The protocol: as §1
The target in assay [56] is EIF3A, Q14152. The protocol: as §1
Assay [57] has as its target MCM10, Q7L590. The protocol: as §1
Assay [58] deals with NCBP3, Q53F19. The protocol: as §1
Assay [59] concerns the target PDS5A, Q29RF7. The protocol: as §1
Assay [60] deals with PJA2, O43164. The protocol:
as §1

Assay [61] addresses SRPK2, P78362. The protocol:
as §1

Assay [62] addresses TAB2, Q9NYJ8. The protocol: as §1
For assay [63], the target named is TMEM263, Q8WUH6. The protocol: as §1
In assay [64] the target is TRA2B, P62995. The protocol:
as §1

Assay [65] concerns the target HERC5, Q9UII4. The protocol:
as §1

Assay [66] has as its target PDLIM7, Q9NR12. The protocol: as §1
The target of assay [67] is RANBP3, Q9H6Z4. The protocol: as §1
The target of assay [68] is RRS1, Q15050. The protocol: as §1
For assay [69], the target named is TUBB2A, Q13885. The protocol: as §1

The list shows a part of the results. Only hits are listed; about a third recur on repeated control peptides.

Turning to NSSHWHTGIRQKAGS [GAS5], the “PRISMA enrichment of interactor (log2)” value in assay [1] worked out at 5.38; in assay [2], 4.69; in assay [3] it was 4.41; in assay [4], 4.61; in [5], 4.11; in [6], 6.63. Besides, the “PRISMA enrichment of interactor (log2)” value in assay [7] was determined as 6.74; in assay [8], 5.3; in assay [9] it was 5.88; in assay [10] it was 4.35; in [11], 5.98; in [12], 5.57. Further, the “PRISMA enrichment of interactor (log2)” value in assay [13] came to 4.95; in assay [14], 4.14; in assay [15] it was 5.68; in assay [16] it was 4.35; in assay [17], 5.84; in assay [18], 4.04. The “PRISMA enrichment of interactor (log2)” value in assay [19] came to 5.45.
As for LPTIEKRRDSMRLEM [CTD-2366F13.1], the “PRISMA enrichment of interactor (log2)” value in assay [1] was 5.24; in assay [20] it was 6.31; in [21], 6.56; in [22], 5.39; in [23] it was 6.97; in assay [24] it was 4.3. The “PRISMA enrichment of interactor (log2)” value came to 7.24 in assay [25]; 4.32 in assay [26]; 5.37 in assay [27]; 6.02 in assay [28]; 4.99 in assay [29]; 4.75 in assay [30]. Moreover, the “PRISMA enrichment of interactor (log2)” value in assay [31] stood at 4.45; in assay [32] it was 4.65; in [33], 6.91; in assay [34] it was 5.72; in assay [35] it was 6.12; in assay [36], 6.03. Moreover, the “PRISMA enrichment of interactor (log2)” value in assay [37] is 5.25; in assay [38], 6.08; in assay [39] it was 5.15; in assay [40] it was 4.44; in assay [41], 6.52; in [42] it was 8.34. In addition, the “PRISMA enrichment of interactor (log2)” value in assay [43] worked out at 5.58; in assay [44] it was 6.51; in [45], 4.55; in [46], 5.56; in [47], 4.58; in assay [48] it was 7.6.
As to LNGKLKSPLGTSVTI [CTC-471J1.11], the figures for the “PRISMA enrichment of interactor (log2)” value in assay [49], in assay [50] and in assay [51] were 8.51, 4.03 and 4.59, respectively.
On to TPAPCGTRLRSLEAV [SLCO5A1], for which the “PRISMA enrichment of interactor (log2)” value stood at 6.92 in [1]; 4.79 in assay [52]; 4.87 in assay [53]; 7.43 in [54]; 4.93 in assay [55]; 4.84 in assay [56]. For the same molecule, the “PRISMA enrichment of interactor (log2)” value came to 4.97 in assay [57]; 4.08 in [58]; 5.28 in assay [59]; 4.05 in assay [60]; 4 in [61]; 4.51 in assay [62]. Besides, the figures for the “PRISMA enrichment of interactor (log2)” value in [63] and in assay [64] were 5.05 and 5.69, respectively.
On to RNLPDDPECSPPTFP [RP11-432J24.5_2], for which the “PRISMA enrichment of interactor (log2)” value was determined as 8.81 in [1]; 4.54 in [65]; 6.22 in assay [66]; 8.12 in assay [67]; 6.35 in assay [68]; 6.91 in [69].
